PubChem BioAssay AID1259308 | NCATS | 2017
In all, the deposit lists about 59,000 reagents; below is a part drawn at random. About 1,510 of them (2.6%) were called active. 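Calls use total luciferase alone and ignore viability, so some active siRNAs may act by altering cell number.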 A number with no mark means an inactive call. The numbers tell different reagents against one gene apart. Further read-outs or replicates are left out here.

Assay: 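Genes whose loss raises luciferase production in HEK293 cells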 (primary screen)
System: human HEK293 embryonic kidney cells stably expressing firefly luciferase (HEK-CMV-Luc2-Hygro)
Knock-down reagent: single siRNA against human genes, 0.8 pmol siRNA per well
Duration: 72 h
Measurement: 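Luciferase light (ONE-Glo) measured on one replicate plate set and viability (CellTiter-Glo) on the other, scaled to a negative control siRNA, with robust z-scores and luciferase per cell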
Direction: total luciferase, z-score and total luciferase, % of control: higher = more reporter protein produced; luciferase per cell, z-score: higher = more reporter output per viable cell
Call rule: 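Active when the median/MAD z-score for overall luciferase is greater than 3; a gene was taken forward for validation with new siRNAs if at least two of its three siRNAs passed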
Calls: active = raised luciferase; inactive = no rise

gene knocked down	siRNA no.	total luciferase, z-score	total luciferase, % of control	luciferase per cell, z-score
MCCD1 (mitochondrial coiled-coil domain 1)	1	1.94	121	1.4
MCCD1 (mitochondrial coiled-coil domain 1)	2	0.608	94	0.807
MCCD1 (mitochondrial coiled-coil domain 1)	3	1.42	110	2.17
OR4C6 (olfactory receptor family 4 subfamily C member 6)	1	3.58 (active)	153	3.21
OR4C6 (olfactory receptor family 4 subfamily C member 6)	2	-0.976	62.5	0.0743
OR4C6 (olfactory receptor family 4 subfamily C member 6)	3	2.16	125	1.64
MINDY1 (MINDY lysine 48 deubiquitinase 1)	1	0.0124	82.1	-0.0723
MINDY1 (MINDY lysine 48 deubiquitinase 1)	2	3.51 (active)	152	2.12
MINDY1 (MINDY lysine 48 deubiquitinase 1)	3	0.358	89	0.0508
INSL5 (insulin like 5)	1	1.07	103	1.1
INSL5 (insulin like 5)	2	1.89	119	2.09
INSL5 (insulin like 5)	3	-1.17	58.6	-1.8
ANP32A (acidic nuclear phosphoprotein 32 family member A)	1	0.291	87.7	0.121
ANP32A (acidic nuclear phosphoprotein 32 family member A)	2	-1.05	61	-1.36
ANP32A (acidic nuclear phosphoprotein 32 family member A)	3	1.26	107	0.749
SLC17A4	1	0.655	94.9	0.671
SLC17A4	2	0.964	101	0.589
SLC17A4	3	-0.0188	81.5	0.965
TMEM233 (transmembrane protein 233)	1	-0.15	78.9	-0.969
TMEM233 (transmembrane protein 233)	2	0.778	97.4	0.33
TMEM233 (transmembrane protein 233)	3	-0.54	71.2	-1.02
DPH7 (diphthamide biosynthesis 7)	1	-0.28	76.3	0.594
DPH7 (diphthamide biosynthesis 7)	2	-0.61	69.8	-0.994
DPH7 (diphthamide biosynthesis 7)	3	0.618	94.2	1.06
BBS12 (Bardet-Biedl syndrome 12)	1	2.25	127	1.9
BBS12 (Bardet-Biedl syndrome 12)	2	-0.708	67.8	-1.18
BBS12 (Bardet-Biedl syndrome 12)	3	0.599	93.8	-0.167
OR7D4 (olfactory receptor family 7 subfamily D member 4)	1	-1.63	49.4	-1.48
OR7D4 (olfactory receptor family 7 subfamily D member 4)	2	-1.03	61.5	-1.02
OR7D4 (olfactory receptor family 7 subfamily D member 4)	3	0.601	93.8	0.0186
CAV2 (caveolin 2)	1	1.86	119	1.28
CAV2 (caveolin 2)	2	-2.1	40.2	-3.18
CAV2 (caveolin 2)	3	-0.156	78.8	-0.275
KRABD1 (KRAB domain containing 1)	1	0.557	93	-0.542
KRABD1 (KRAB domain containing 1)	2	-0.811	65.8	-1.18
KRABD1 (KRAB domain containing 1)	3	-0.235	77.2	-1.1
EFNA1 (ephrin A1)	1	-1.37	54.6	-1.28
EFNA1 (ephrin A1)	2	-0.513	71.7	-0.584
EFNA1 (ephrin A1)	3	0.448	90.8	-0.00272
PRAM1 (PML-RARA regulated adaptor molecule 1)	1	0.211	86.1	0.0809
PRAM1 (PML-RARA regulated adaptor molecule 1)	2	-1.04	61.3	0.214
PRAM1 (PML-RARA regulated adaptor molecule 1)	3	0.0255	82.4	0.112

The list goes on, starting with the last 2 of the part before.
gene knocked down	siRNA no.	total luciferase, z-score	total luciferase, % of control	luciferase per cell, z-score
PRAM1 (PML-RARA regulated adaptor molecule 1)	2	-1.04	61.3	0.214
PRAM1 (PML-RARA regulated adaptor molecule 1)	3	0.0255	82.4	0.112
DHX37 (DEAH-box helicase 37)	1	-0.714	67.7	0.0278
DHX37 (DEAH-box helicase 37)	2	-1.28	56.4	-1.12
DHX37 (DEAH-box helicase 37)	3	-2.17	38.7	-2.78
GPRASP2 (G protein-coupled receptor associated sorting protein 2)	1	0.0379	82.6	-0.108
GPRASP2 (G protein-coupled receptor associated sorting protein 2)	2	-0.748	67	-0.395
GPRASP2 (G protein-coupled receptor associated sorting protein 2)	3	1.86	119	0.572
GIPC2 (GIPC PDZ domain containing family member 2)	1	1.23	106	0.921
GIPC2 (GIPC PDZ domain containing family member 2)	2	-0.00707	81.7	0.0999
GIPC2 (GIPC PDZ domain containing family member 2)	3	-0.414	73.7	0.582
RNF217 (ring finger protein 217)	1	1.68	115	2.02
RNF217 (ring finger protein 217)	2	1.26	107	0.924
RNF217 (ring finger protein 217)	3	-0.0231	81.4	-0.51
AUP1 (AUP1 lipid droplet regulating VLDL assembly factor)	1	0.903	99.8	0.287
AUP1 (AUP1 lipid droplet regulating VLDL assembly factor)	2	-1.84	45.3	-2.53
AUP1 (AUP1 lipid droplet regulating VLDL assembly factor)	3	0.413	90.1	0.368
NAPB (NSF attachment protein beta)	1	-0.43	73.3	-0.431
NAPB (NSF attachment protein beta)	2	0.94	101	2.09
NAPB (NSF attachment protein beta)	3	-0.331	75.3	-0.261
FAM90A1 (family with sequence similarity 90 member A1)	1	-0.379	74.3	-0.279
FAM90A1 (family with sequence similarity 90 member A1)	2	0.663	95.1	0.194
FAM90A1 (family with sequence similarity 90 member A1)	3	1.94	121	1.53
MYL7 (myosin light chain 7)	1	0.413	90.1	1.42
MYL7 (myosin light chain 7)	2	0.888	99.5	1.76
MYL7 (myosin light chain 7)	3	-2.14	39.3	-0.915
IL34 (interleukin 34)	1	0.416	90.2	1.02
IL34 (interleukin 34)	2	-2.51	32	-2.95
IL34 (interleukin 34)	3	-0.506	71.8	-0.96
CACNA1I (calcium voltage-gated channel subunit alpha1 I)	1	2.53	132	2.36
CACNA1I (calcium voltage-gated channel subunit alpha1 I)	2	0.386	89.6	0.0616
CACNA1I (calcium voltage-gated channel subunit alpha1 I)	3	0.485	91.5	-0.13
ZNF276 (zinc finger protein 276)	1	-0.547	71	-0.198
ZNF276 (zinc finger protein 276)	2	-1.03	61.4	-0.254
ZNF276 (zinc finger protein 276)	3	0.045	82.8	0.466
